Measurements taken from US7632814B2, “HYD1 peptides as anti-cancer agents” (University of South Florida, priority 2006, dated 2009).
For at least one compound, name, drawing or mass did not settle the structure.

Test system: MM1.S cells
Type: cell-based
Description: FIGS. 4A-4E are a series of graphs showing that the BMS model protects myeloma MM1.S cells from melphalan (FIG. 4A), mitoxantrone (FIG. 4B), and dexamethasone (FIGS. 4C-4E) induced cell death. SF+A model confers the highest levels of resistance to cell death induced by either mitoxantrone or melphalan.
FIGS. 10A-10E are a series of graphs showing that the BMS model protects MM1.S cells from melphalan (FIG. 10A), mitoxantrone (FIG. 10B), dexamethasone (FIGS. 10C and 10D), and velcade (FIG. 10E) induced cell death.
The CAM-DR phenotype is tested by removing unadhered cells before the addition of drug. […] For this reason, the inventors chose to test for the reversal of drug resistance in adherent cells by using a bone marrow stroma (BMS) model (HS-5 cell line). In the BMS model of drug resistance, cell-cell adhesion is mediated by multiple adhesion moieties and thus the addition of a β1 blocking antibody is not sufficient to block tumor cell adhesion to the BMS cell line. The BMS model system is described in FIGS. 3A-D. These models have facilitated the availability of four discrete hematopoietic tumor populations. The first tumor population (FIG. 3A) is maintained in a traditional suspension culture in RPMI media containing 10% FBS (RM). Conditioned media is prepared by adding fresh RPMI media containing 10% FBS to HS-5 cells which are 75% confluent. […]

C[C@@H]1C[C@H]2[C@@H]3CCC4=CC(=O)C=C[C@]4(C)[C@@]3(F)[C@@H](O)C[C@]2(C)[C@@]1(O)C(=O)CO [dexamethasone]
protection from drug-induced apoptosis by conditioned media (CM): sufficient to protect
resistance to drug induced cell death conferred by HS-5 stromal layer in the BMS model: sufficient to confer resistance
